Where a name gives a salt, the structure may show the parent alone. The data scatter; read single values as rough.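 The cells are immortalized human renal angiomyolipoma cells carrying an empty vector, so TSC2 stays lost. Viability was read by a luminescent ATP assay and normalized to vehicle-treated wells on each plate, in low-serum medium where TSC2-rescued cells do not grow.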
System: 621-102 (TSC2-deficient)
Test: relative viability vs DMSO (fraction); higher = less cytotoxic
Conditions: serum: 0.1% FBS, 72 h

C[C@H](NC(=O)Cc1cc(F)cc(F)c1)C(=O)N[C@H](C(=O)OC(C)(C)C)c1ccccc1 [DAPT (GSI-IX)]
relative viability (0.0128 nM): 0.616 | relative viability (0.064 nM): 0.607 | relative viability (0.32 nM): 0.671 | relative viability (1.6 nM): 0.656 | relative viability (8 nM): 0.513 | relative viability (40 nM): 0.421 | relative viability (200 nM): 0.412 | relative viability (1000 nM): 0.432 | relative viability (5000 nM): 0.6

NC1(Cc2ccc(Cl)cc2)CCN(c2ncnc3[nH]ccc23)CC1
relative viability (0.0128 nM): 0.848 | relative viability (0.064 nM): 0.829 | relative viability (0.32 nM): 0.8 | relative viability (1.6 nM): 0.77 | relative viability (8 nM): 0.478 | relative viability (40 nM): 0.818 | relative viability (200 nM): 0.776 | relative viability (1000 nM): 0.73 | relative viability (5000 nM): 0.545

COc1cc(N2CCC(N3CCN(C)CC3)CC2)ccc1Nc1ncc(Cl)c(Nc2ccccc2S(=O)(=O)C(C)C)n1 [NVP-TAE684]
relative viability (0.0128 nM): 0.861 | relative viability (0.064 nM): 0.93 | relative viability (0.32 nM): 0.801 | relative viability (1.6 nM): 0.702 | relative viability (8 nM): 0.799 | relative viability (40 nM): 0.8 | relative viability (200 nM): 0.576 | relative viability (1000 nM): 0.014 | relative viability (5000 nM): 0.00532

c1cncc(CN2CCC(n3ncc4c(N5CCOCC5)nc(-c5ccc6[nH]ccc6c5)nc43)CC2)c1 [WAY-600]
relative viability (0.0128 nM): 1.14 | relative viability (0.064 nM): 1.14 | relative viability (0.32 nM): 1.21 | relative viability (1.6 nM): 1.08 | relative viability (8 nM): 0.843 | relative viability (40 nM): 0.587 | relative viability (200 nM): 0.778 | relative viability (1000 nM): 0.793 | relative viability (5000 nM): 0.0197

CNCCC(Oc1ccc(C(F)(F)F)cc1)c1ccccc1 (stereo not drawn) [Fluoxetine HCl]
relative viability (0.0128 nM): 0.676 | relative viability (0.064 nM): 0.674 | relative viability (0.32 nM): 0.734 | relative viability (1.6 nM): 0.797 | relative viability (8 nM): 0.786 | relative viability (40 nM): 0.753 | relative viability (200 nM): 0.781 | relative viability (1000 nM): 0.7 | relative viability (5000 nM): 0.776

C#Cc1cccc(Nc2ncnc3cc(OCCOC)c(OCCOC)cc23)c1 [Erlotinib HCl (OSI-744)]
relative viability (0.0128 nM): 0.894 | relative viability (0.064 nM): 0.845 | relative viability (0.32 nM): 0.918 | relative viability (1.6 nM): 0.752 | relative viability (8 nM): 0.761 | relative viability (40 nM): 0.65 | relative viability (200 nM): 0.743 | relative viability (1000 nM): 0.651 | relative viability (5000 nM): 0.513

CCC1=C[C@@H]2CN(C1)Cc1c([nH]c3ccccc13)[C@@](C(=O)OC)(c1cc3c(cc1OC)N(C)[C@H]1[C@@](O)(C(=O)OC)[C@H](OC(C)=O)[C@]4(CC)C=CCN5CC[C@@]31[C@H]54)C2 [Vinorelbine(Navelbine)]
relative viability (0.0128 nM): 0.287 | relative viability (0.064 nM): 0.863 | relative viability (0.32 nM): 0.853 | relative viability (1.6 nM): 0.219 | relative viability (8 nM): 0.035 | relative viability (40 nM): 0.0213 | relative viability (200 nM): 0.0184 | relative viability (1000 nM): 0.0187 | relative viability (5000 nM): 0.0182

CN1CCc2c(c3ccccc3n2Cc2ccc(C(=O)NO)cc2)C1 [Tubastatin A hydrochloride]
relative viability (0.0128 nM): 0.862 | relative viability (0.064 nM): 0.835 | relative viability (0.32 nM): 0.752 | relative viability (1.6 nM): 0.773 | relative viability (8 nM): 0.725 | relative viability (40 nM): 0.822 | relative viability (200 nM): 0.646 | relative viability (1000 nM): 0.677 | relative viability (5000 nM): 0.668

CC1(C)CC(=O)c2c(C(F)(F)F)nn(-c3ccc(C(N)=O)c(N[C@H]4CC[C@H](O)CC4)c3)c2C1 [SNX-2112]
relative viability (0.0128 nM): 0.901 | relative viability (0.064 nM): 0.918 | relative viability (0.32 nM): 0.906 | relative viability (1.6 nM): 0.814 | relative viability (8 nM): 0.611 | relative viability (40 nM): 0.0842 | relative viability (200 nM): 0.0168 | relative viability (1000 nM): 0.00979 | relative viability (5000 nM): 0.0149

CNC(=C[N+](=O)[O-])NCCSCc1csc(CN(C)C)n1 [Nizatidine]
relative viability (0.0128 nM): 0.859 | relative viability (0.064 nM): 0.896 | relative viability (0.32 nM): 0.847 | relative viability (1.6 nM): 0.87 | relative viability (8 nM): 0.862 | relative viability (40 nM): 0.726 | relative viability (200 nM): 0.798 | relative viability (1000 nM): 0.758 | relative viability (5000 nM): 0.615

O=C(O)Cc1cccc(OCCCN(Cc2cccc(C(F)(F)F)c2Cl)CC(c2ccccc2)c2ccccc2)c1 [GW3965]
relative viability (0.0128 nM): 0.949 | relative viability (0.064 nM): 0.892 | relative viability (0.32 nM): 0.912 | relative viability (1.6 nM): 0.82 | relative viability (8 nM): 0.806 | relative viability (40 nM): 0.683 | relative viability (200 nM): 0.58 | relative viability (1000 nM): 0.387 | relative viability (5000 nM): 0.012

COc1cccc(-c2cc(=O)c3ccccc3o2)c1N
relative viability (0.0128 nM): 0.837 | relative viability (0.064 nM): 0.865 | relative viability (0.32 nM): 0.789 | relative viability (1.6 nM): 0.842 | relative viability (8 nM): 0.775 | relative viability (40 nM): 0.74 | relative viability (200 nM): 0.737 | relative viability (1000 nM): 0.593 | relative viability (5000 nM): 0.555

CCN(CC)CCNC(=O)c1c(C)[nH]c(/C=C2\C(=O)Nc3ccc(F)cc32)c1C [Sunitinib Malate]
relative viability (0.0128 nM): 1.01 | relative viability (0.064 nM): 0.959 | relative viability (0.32 nM): 0.801 | relative viability (1.6 nM): 0.824 | relative viability (8 nM): 0.824 | relative viability (40 nM): 0.797 | relative viability (200 nM): 0.724 | relative viability (1000 nM): 0.627 | relative viability (5000 nM): 0.421

COc1cc([C@@H]2c3cc4c(cc3[C@@H](O[C@@H]3O[C@@H]5CO[C@@H](C)O[C@H]5[C@H](O)[C@H]3O)[C@H]3COC(=O)[C@H]23)OCO4)cc(OC)c1O [Etoposide]
relative viability (0.0128 nM): 0.862 | relative viability (0.064 nM): 0.926 | relative viability (0.32 nM): 1.06 | relative viability (1.6 nM): 1.01 | relative viability (8 nM): 0.945 | relative viability (40 nM): 0.308 | relative viability (200 nM): 0.336 | relative viability (1000 nM): 0.0672 | relative viability (5000 nM): 0.0313

COc1cc2c(Nc3ccc(NC(=O)c4ccccc4)cc3)ncnc2cc1OCCCN1CCOCC1
relative viability (0.0128 nM): 0.497 | relative viability (0.064 nM): 0.651 | relative viability (0.32 nM): 0.489 | relative viability (1.6 nM): 0.593 | relative viability (8 nM): 0.591 | relative viability (40 nM): 0.602 | relative viability (200 nM): 0.509 | relative viability (1000 nM): 0.0253 | relative viability (5000 nM): 0.00809

CC(C)(C)c1[nH]cnc1/C=c1\[nH]c(=O)/c(=C/c2ccccc2)[nH]c1=O [NPI-2358]
relative viability (0.0128 nM): 0.809 | relative viability (0.064 nM): 0.786 | relative viability (0.32 nM): 0.793 | relative viability (1.6 nM): 0.82 | relative viability (8 nM): 0.279 | relative viability (40 nM): 0.0319 | relative viability (200 nM): 0.0147 | relative viability (1000 nM): 0.0166 | relative viability (5000 nM): 0.0259

CN1CCN(C2=Nc3cc(Cl)ccc3Nc3ccccc32)CC1 [Clozapine]
relative viability (0.0128 nM): 0.78 | relative viability (0.064 nM): 0.783 | relative viability (0.32 nM): 0.716 | relative viability (1.6 nM): 0.668 | relative viability (8 nM): 0.647 | relative viability (40 nM): 0.618 | relative viability (200 nM): 0.611 | relative viability (1000 nM): 0.794 | relative viability (5000 nM): 0.705

O=c1cc(N2CCOCC2)oc2c(-c3cccc4c3sc3ccccc34)cccc12 [NU7441]
relative viability (0.0128 nM): 1.07 | relative viability (0.064 nM): 1.01 | relative viability (0.32 nM): 1.14 | relative viability (1.6 nM): 1.01 | relative viability (8 nM): 0.722 | relative viability (40 nM): 0.568 | relative viability (200 nM): 0.58 | relative viability (1000 nM): 0.264 | relative viability (5000 nM): 0.0121

CC[C@H]1OC(=O)[C@H](C)[C@@H](O[C@H]2C[C@@](C)(OC)[C@@H](O)[C@H](C)O2)[C@H](C)[C@@H](O[C@@H]2O[C@H](C)C[C@H](N(C)C)[C@H]2O)[C@](C)(OC)C[C@@H](C)C(=O)[C@H](C)[C@@H](O)[C@]1(C)O [Clarithromycin]
relative viability (0.0128 nM): 0.928 | relative viability (0.064 nM): 0.926 | relative viability (0.32 nM): 0.896 | relative viability (1.6 nM): 0.861 | relative viability (8 nM): 0.856 | relative viability (40 nM): 0.76 | relative viability (200 nM): 0.765 | relative viability (1000 nM): 0.621 | relative viability (5000 nM): 0.735

Nc1cccc2c1CN(C1CCC(=O)NC1=O)C2=O (stereo not drawn) [Lenalidomide (CC-5013)]
relative viability (0.0128 nM): 0.913 | relative viability (0.064 nM): 0.795 | relative viability (0.32 nM): 0.742 | relative viability (1.6 nM): 0.739 | relative viability (8 nM): 0.717 | relative viability (40 nM): 0.692 | relative viability (200 nM): 0.725 | relative viability (1000 nM): 0.715 | relative viability (5000 nM): 0.754

CC1(C)CC(=O)c2c(C(F)(F)F)nn(-c3ccc(C(N)=O)c(N[C@H]4CC[C@H](OC(=O)CN)CC4)c3)c2C1
relative viability (0.0128 nM): 0.762 | relative viability (0.064 nM): 0.727 | relative viability (0.32 nM): 0.883 | relative viability (1.6 nM): 0.722 | relative viability (8 nM): 0.707 | relative viability (40 nM): 0.211 | relative viability (200 nM): 0.0325 | relative viability (1000 nM): 0.0341 | relative viability (5000 nM): 0.00869

CO/N=C(\C(=O)N[C@@H]1C(=O)N2C(C(=O)O)=C(CSC(=O)c3ccco3)CS[C@H]12)c1csc(N)n1 [Ceftiofur HCl]
relative viability (0.0128 nM): 0.598 | relative viability (0.064 nM): 0.698 | relative viability (0.32 nM): 0.597 | relative viability (1.6 nM): 0.568 | relative viability (8 nM): 0.64 | relative viability (40 nM): 0.585 | relative viability (200 nM): 0.657 | relative viability (1000 nM): 0.715 | relative viability (5000 nM): 0.717

Reference: the supplement of paper PMC8960247
